In patent US20090253206A1, “NUCLEAR TRANSPORT AGENT AND METHOD FOR PRODUCING SAID AGENT” (LONZA COLOGNE AG, priority 2006, published 2009):
Some results were stated once for a whole list of compounds, not compound by compound.

Tested on: pmaxGFP plasmid DNA
Assay: DNA-band shift of plasmid DNA with positively charged peptides and peptide-NLS in Opti-MEM (FIGS. 3 and 4)
Format: binding
Settings: relative to the other DNA-anchoring peptides
Description: Plasmid DNA (90 ng per sample) was incubated with different amounts (numbers above each lane indicate pico-mole amounts per sample) of positively charged peptides (see list of peptide sequences for details) in Opti-MEM as described below.
Several positively charged peptides, as well as positively charged peptides bearing a positively charged NLS (NLS1) or a neutral NLS (NLS2) were tested for their ability to complex DNA and form higher aggregates, visible as shifts of the electrophoretic mobility of the DNA.
Peptides were synthesized by F-moc-chemistry and HPLC-purified to 95% purity. The carboxyl-group at the C-terminus was amidated and the N-terminal amino-group was actylated, in order to eliminate additional charges. U represents the spacer molecule 8-amino-3,6-dioxaoctanoic acid (UUU (U3) represents a trimer of U):
Lyophilized peptides, provided by supplier, were dissolved in distilled water to 0.1 mM. DNA was pmaxGFP plasmid DNA, 3.7 kb size (amaxa AG, Cologne), dissolved in water at 1 mg/ml. The plasmid encodes a green fluorescent protein (GFP).
For DNA-band shift experiments 90 ng or 135 ng DNA, resp., were incubated with various amounts of peptide (indicated in the figure) in Opti-MEM (Invitrogen) in a total volume of 60 μl or 90 μl, resp., at 20° C. for 30 min. […]

| Substance | more peptide needed to completely shift the DNA [times] |
| --- | --- |
| RKGKKV RKGKKV RKGKKV GGGS (RKGKKVRKGKKVRKGKKVGGGS; DNA-anchoring peptide) [RKG18GGGS] | 2 to 3 |
| RKGKKV RKGKKV RKGKKV RKGKKV GGGS (RKGKKVRKGKKVRKGKKVRKGKKVGGGS; DNA-anchoring peptide) [RKG24GGGS] | 2 to 3 |
